We go through one substance from article PMC6053369.

The chains behind the UniProt entries cited, without tags or fusion partners. Where a name states a change or a piece, a line headed by the entry shows the natural chain unless it says otherwise.
UniProt Q8BKJ9: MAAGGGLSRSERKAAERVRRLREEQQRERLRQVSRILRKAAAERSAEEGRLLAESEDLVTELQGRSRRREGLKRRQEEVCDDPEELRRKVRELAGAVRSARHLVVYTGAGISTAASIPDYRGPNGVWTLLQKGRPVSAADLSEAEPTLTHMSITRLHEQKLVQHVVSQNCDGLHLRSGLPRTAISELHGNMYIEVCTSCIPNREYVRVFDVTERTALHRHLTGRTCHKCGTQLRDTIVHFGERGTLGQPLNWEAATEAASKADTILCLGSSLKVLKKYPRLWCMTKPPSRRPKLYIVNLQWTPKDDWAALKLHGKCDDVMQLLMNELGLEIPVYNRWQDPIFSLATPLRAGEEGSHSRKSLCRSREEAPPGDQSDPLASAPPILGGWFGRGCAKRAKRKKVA
UniProt Q8VI67: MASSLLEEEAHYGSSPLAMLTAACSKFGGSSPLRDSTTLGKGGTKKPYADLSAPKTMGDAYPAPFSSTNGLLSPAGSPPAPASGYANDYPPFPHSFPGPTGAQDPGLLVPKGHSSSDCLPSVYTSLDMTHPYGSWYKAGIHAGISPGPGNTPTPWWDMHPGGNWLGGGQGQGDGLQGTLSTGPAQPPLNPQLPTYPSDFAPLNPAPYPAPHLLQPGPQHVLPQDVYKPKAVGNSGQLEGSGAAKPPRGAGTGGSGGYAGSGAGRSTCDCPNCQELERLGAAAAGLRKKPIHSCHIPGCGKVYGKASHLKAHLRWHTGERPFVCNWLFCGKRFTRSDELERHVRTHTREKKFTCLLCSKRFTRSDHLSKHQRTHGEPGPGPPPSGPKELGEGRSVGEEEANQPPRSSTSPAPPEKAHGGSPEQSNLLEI

Results are given in words; binding and its absence hold for the method and conditions named. Binding seen in cells or lysates may run through a third protein. Binding can be weak; no strength is given.

This assay deals with Halo-SIRT7-FLAG (UniProt Q8BKJ9). Description: pull-down; HaloTag pull-down: Halo fusion proteins (30 ug) immobilised on HaloLink Resin, incubated with 500 ug lysate of transfected HEK293T cells in pull-down buffer (10 mM Tris-HCl pH 7.4, 150 mM NaCl, 1% NP-40, 10 mM NaF, 10 mM Na4P2O7), overnight at 4 C, five washes; western blot; only the target ….

Turning to “GAL4DBD-OSX N-terminal transactivation domain (27-192) (from UniProt Q8VI67) (domain or fragment)”, the binding entry was “binds weakly”.
